Measurements: the supplement of paper PMC3334620
In all, about 33,000 sequences were measured (“E-score (-0.5 to 0.5)”: median about -8e-05, highest 2% from about 0.23 on). The list shows a part of the results.

Target: T1, Nrg2 (UniProt P38082)
T1 sequence: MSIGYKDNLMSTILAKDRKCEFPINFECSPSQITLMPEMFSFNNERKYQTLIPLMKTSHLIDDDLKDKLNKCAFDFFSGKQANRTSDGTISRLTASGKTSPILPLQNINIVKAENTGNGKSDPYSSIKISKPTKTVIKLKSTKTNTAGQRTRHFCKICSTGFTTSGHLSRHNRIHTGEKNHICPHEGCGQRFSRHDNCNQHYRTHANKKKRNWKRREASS
Experiment: PBM E-score (8-mer binding enrichment) (E-score (-0.5 to 0.5)); higher = stronger / more preferred TF binding
Conditions: protein concentration: 100 nM; construct: GST-full length
Description: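 Universal 'all 10-mer' protein binding microarrays (Agilent AMADID 015681) probed with GST-tagged S. cerevisiae TFs (full-length or DBD) made by in vitro transcription/translation (PURExpress), about 100-200 nM. Bound TF was detected with fluorescent anti-GST. Each ungapped 8-mer (which stands for itself and its reverse complement) is scored by the PBM enrichment score (E-score), a modified Wilcoxon-Mann-Whitney statistic from -0.5 to +0.5, computed with the Universal PBM Analysis Suite. Scale: above 0.35 generally sequence-specific binding.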

Sequence | PBM E-score
CACTATAC | 0.17
GGAGACAC | -0.0981
AGGGACGG | -0.0133
CGCCGCGC | 0.0565
GAGTGAAC | -0.0558
CAGAAGCC | -0.0704
TATCGCAA | 0.197
AGCTCACG | 0.0222
ACAAAGCA | 0.157
ACTTAACA | -0.0696
CGCTACAC | -0.0459
ATACCTGC | -0.0191
CGAGACAA | 0.00971
CCATTCAA | 0.106
AGCTAATG | 0.0771
ATCGTAAT | 0.0901
GATGTGCA | 0.063
ATCAAATA | 0.166
ATGTTTTC | 0.00675
CAAGAACG | 0.14
ATGACGTA | -0.179
ATGGTTGC | -0.0868

Sequence | PBM E-score
ACCCAGCA | -0.0713
ATCATCTA | 0.0251
ATCCTAAT | -0.0839
ATAGTGAC | -0.0527
CATTGGCG | -0.192
CCTTGTTC | 0.042
CACCCAGA | -0.0382
GCAGCGAA | -0.0544
CTACAGAC | -0.249
AGGAACAG | -0.158
ATTCTAGG | -0.0334
AACGTTTC | -0.144
CGCAGAAA | 0.0592
GGTAGTGA | 0.0296
GGACGACA | 0.132
CAGTAAAG | -0.0525
CCGCGGAC | 0.0796
ATTGGCCC | -0.214
CACCAGCG | -0.0759
AACTTAAA | 0.0173
ATACTACA | 0.175
AATGAGAG | 0.0851

Sequence | PBM E-score
AACACTGT | -0.0188
CTTGCCCA | -0.149
GACGGAAA | 0.2
ACACGGGG | 0.105
AGGAAACC | 0.0623
AGTCAGTG | 0.147
AGCAGCCT | -0.169
AAATTTCG | 0.171
GGGTAAAA | 0.134
CCGTAAAA | 0.0001
CCCCCGCG | -0.167
CAGCAAAA | 0.056
GCATTCGA | 0.124
TCGTCTCA | -0.0243
CTCTTACC | 0.127
AAAGCTAC | -0.0761
CACCAACG | -0.219
CTCCTCTA | -0.335
CTTAAAAC | 0.0325
CGCTAGAC | -0.214
CGCCGGCG | 0.0628
CATTAAAG | 0.119

Sequence | PBM E-score
ACAACACC | 0.0571
AATCGGGT | 0.195
CAGTCGTA | -0.0735
GGCCCCCC | -0.347
GAAATAGA | 0.136
GAAGTACC | 0.129
GTCTCGCA | -0.17
AGACCGTC | -0.104
CCTCCGCG | -0.0794
AAAGTACC | 0.0228
TATAGAAA | 0.0376
ATAGCCAC | 0.113
CCGATGTA | -0.111
CTTCTACC | -0.175
ACATAGGC | 0.0492
CTGCGGCC | -0.0367
CTGCGGGC | -0.0348
ACTATAGT | 0.208
AATATCAG | 0.162
GTTCGCAA | 0.123
ATCGAAAA | 0.0461
AACCTTCC | -0.0967

Sequence | PBM E-score
CTGAAATA | 0.0883
CAGAAACG | 0.0864
GCGTCACC | -0.236
TAATTACA | 0.0753
AAAGTTTA | 0.0807
GATGAAAC | 0.219
CGGGCGCA | -0.0283
GGTTTACA | 0.0723
AGCGGGGC | -0.148
AGCGAATG | -0.12
ACCATACG | -0.0219
AAGGCCTG | -0.27
ATTAGCTG | 0.0519
AGTAACGC | -0.0294
AAACATGC | -0.042
CTCATGAG | 0.0974
GAACTAGC | 0.0818
CCATAAGA | 0.137
GCTTCAGA | -0.0839
ATCCAAAA | 0.0493
CTCCTCGC | -0.124
ATATGCGG | 0.153

28 entries from above in a different format.

| Sequence | PBM E-score |
| --- | --- |
| GGAGACAC | -0.0981 |
| CGAGACAA | 0.00971 |
| CCATTCAA | 0.106 |
| AGCTAATG | 0.0771 |
| ATCAAATA | 0.166 |
| ACCCAGCA | -0.0713 |
| ATCCTAAT | -0.0839 |
| CCTTGTTC | 0.042 |
| ATTCTAGG | -0.0334 |
| GACGGAAA | 0.2 |
| TCGTCTCA | -0.0243 |
| CGCTAGAC | -0.214 |
| GTCTCGCA | -0.17 |
| AGACCGTC | -0.104 |
| CTTCTACC | -0.175 |
| CTGCGGCC | -0.0367 |
| ACTATAGT | 0.208 |
| ATCGAAAA | 0.0461 |
| AACCTTCC | -0.0967 |
| GATGAAAC | 0.219 |
| GGTTTACA | 0.0723 |
| AGCGGGGC | -0.148 |
| ACCATACG | -0.0219 |
| CTCATGAG | 0.0974 |
| CCATAAGA | 0.137 |
| GCTTCAGA | -0.0839 |
| ATCCAAAA | 0.0493 |
| CTCCTCGC | -0.124 |
